{
  "source": "the supplement of paper PMC8728848",
  "binders": {"B1": {"name": "EUL D1A first (Oryza sativa) (protein)", "chain": "MFGFGHHHNQAPAAPSDPNQIFKIFCRANENYCLTVRDSAVVLAPVNPKDEHQHWFKDMRFSTKVKDGEGMPAFALVNKATGLAVKHSLGQSHPVKLVPFNPEYEDASVLWTESKDVGKGFRCIRMVNNTRLNLDAFHGDKDHGGVRDGTTVVLWEWCKGDNQSWKILPWGPEAHSSSPGAATILEQKLISEEDLNSAVDHHHHHH"}},
  "experiment_in_all_cases": "glycan array binding signal (z-score within array); higher = stronger binding",
  "settings_in_all_cases": "glycan notation: IUPAC condensed, linker removed",
  "key": {"[1]": {"biological_target": "Fuc(a1-2)Gal(b1-4)[Fuc(a1-3)]GlcNAc(b1-2)Man(a1-3)[Fuc(a1-2)Gal(b1-4)[Fuc(a1-3)]GlcNAc(b1-2)Man(a1-6)]Man(b1-4)GlcNAc(b1-4)[Fuc(a1-6)]GlcNAc", "how_it_was_run": "(§1)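 Glycan array data were curated from 3228 arrays in the Consortium for Functional Glycomics database and kept only where the protein sequence was available. Glycan names were converted to IUPAC-condensed notation, and columns mapping to the same glycan were averaged. The binding signal is a within-array Z-score, averaged across arrays of the same protein sequence at different concentrations or buffers and across linkers. Negative Z-scores can be read as non-binding.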"}, "[2]": {"biological_target": "Fuc(a1-2)Gal(b1-4)[Fuc(a1-3)]GlcNAc(b1-2)[Fuc(a1-2)Gal(b1-4)[Fuc(a1-3)]GlcNAc(b1-4)]Man(a1-3)[Fuc(a1-2)Gal(b1-4)[Fuc(a1-3)]GlcNAc(b1-2)Man(a1-6)]Man(b1-4)GlcNAc(b1-4)GlcNAc", "how_it_was_run": "as §1"}, "[3]": {"biological_target": "Fuc(a1-2)Gal(b1-4)[Fuc(a1-3)]GlcNAc(b1-3)Gal(b1-4)[Fuc(a1-3)]GlcNAc", "how_it_was_run": "as §1"}, "[4]": {"biological_target": "Fuc(a1-2)Gal(b1-4)[Fuc(a1-3)]GlcNAc(b1-3)Gal(b1-4)[Fuc(a1-3)]GlcNAc(b1-3)Gal(b1-4)[Fuc(a1-3)]GlcNAc", "how_it_was_run": "as §1"}, "[5]": {"biological_target": "Fuc(a1-2)Gal(b1-4)[Fuc(a1-3)]GlcNAc(b1-3)GalNAc", "how_it_was_run": "as §1"}, "[6]": {"biological_target": "Fuc(a1-2)Gal(b1-4)[Fuc(a1-3)]GlcNAc(b1-3)[Neu5Ac(a2-6)Gal(b1-4)GlcNAc(b1-6)]Gal(b1-4)Glc", "how_it_was_run": "as §1"}, "[7]": {"biological_target": "Fuc(a1-2)Gal3S(b1-4)GlcNAc", "how_it_was_run": "as §1"}, "[8]": {"biological_target": "Fuc(a1-2)Gal6S(b1-3)GlcNAc", "how_it_was_run": "as §1"}, "[9]": {"biological_target": "Fuc(a1-2)Gal6S(b1-3)GlcNAc6S", "how_it_was_run": "as §1"}, "[10]": {"biological_target": "Fuc(a1-2)Gal6S(b1-4)Glc", "how_it_was_run": "as §1"}, "[11]": {"biological_target": "Fuc(a1-2)Gal6S(b1-4)Glc6S", "how_it_was_run": "as §1"}, "[12]": {"biological_target": "Fuc(a1-2)[Gal(a1-3)]Gal", "how_it_was_run": "as §1"}, "[13]": {"biological_target": "Fuc(a1-2)[Gal(a1-3)]Gal(b1-3)GalNAc", "how_it_was_run": "as §1"}, "[14]": {"biological_target": "Fuc(a1-2)[Gal(a1-3)]Gal(b1-3)GalNAc(b1-3)Gal(a1-4)Gal(b1-4)Glc", "how_it_was_run": "as §1"}, "[15]": {"biological_target": "Fuc(a1-2)[Gal(a1-3)]Gal(b1-3)GlcNAc", "how_it_was_run": "as §1"}, "[16]": {"biological_target": "Fuc(a1-2)[Gal(a1-3)]Gal(b1-3)GlcNAc(b1-2)Man(a1-3)[Fuc(a1-2)[Gal(a1-3)]Gal(b1-3)GlcNAc(b1-2)Man(a1-6)]Man(b1-4)GlcNAc(b1-4)GlcNAc", "how_it_was_run": "as §1"}, "[17]": {"biological_target": "Fuc(a1-2)[Gal(a1-3)]Gal(b1-3)GlcNAc(b1-2)Man(a1-3)[Fuc(a1-2)[Gal(a1-3)]Gal(b1-3)GlcNAc(b1-2)Man(a1-6)]Man(b1-4)GlcNAc(b1-4)[Fuc(a1-6)]GlcNAc", "how_it_was_run": "as §1"}, "[18]": {"biological_target": "Fuc(a1-2)[Gal(a1-3)]Gal(b1-3)GlcNAc(b1-3)GalNAc", "how_it_was_run": "as §1"}, "[19]": {"biological_target": "Fuc(a1-2)[Gal(a1-3)]Gal(b1-3)GlcNAc(b1-6)GalNAc", "how_it_was_run": "as §1"}, "[20]": {"biological_target": "Fuc(a1-2)[Gal(a1-3)]Gal(b1-4)Glc", "how_it_was_run": "as §1"}, "[21]": {"biological_target": "Fuc(a1-2)[Gal(a1-3)]Gal(b1-4)GlcNAc", "how_it_was_run": "as §1"}, "[22]": {"biological_target": "Fuc(a1-2)[Gal(a1-3)]Gal(b1-4)GlcNAc(b1-2)Man", "how_it_was_run": "as §1"}, "[23]": {"biological_target": "Fuc(a1-2)[Gal(a1-3)]Gal(b1-4)GlcNAc(b1-2)Man(a1-3)[Fuc(a1-2)[Gal(a1-3)]Gal(b1-4)GlcNAc(b1-2)Man(a1-6)]Man(b1-4)GlcNAc(b1-4)GlcNAc", "how_it_was_run": "as §1"}, "[24]": {"biological_target": "Fuc(a1-2)[Gal(a1-3)]Gal(b1-4)GlcNAc(b1-2)Man(a1-3)[Fuc(a1-2)[Gal(a1-3)]Gal(b1-4)GlcNAc(b1-2)Man(a1-6)]Man(b1-4)GlcNAc(b1-4)[Fuc(a1-6)]GlcNAc", "how_it_was_run": "as §1"}, "[25]": {"biological_target": "Fuc(a1-2)[Gal(a1-3)]Gal(b1-4)GlcNAc(b1-3)GalNAc", "how_it_was_run": "as §1"}, "[26]": {"biological_target": "Fuc(a1-2)[Gal(a1-3)]Gal(b1-4)GlcNAc(b1-3)[Fuc(a1-2)[Gal(a1-3)]Gal(b1-4)GlcNAc(b1-6)]GalNAc", "how_it_was_run": "as §1"}, "[27]": {"biological_target": "Fuc(a1-2)[Gal(a1-3)]Gal(b1-4)GlcNAc(b1-6)GalNAc", "how_it_was_run": "as §1"}, "[28]": {"biological_target": "Fuc(a1-2)[Gal(a1-3)]Gal(b1-4)[Fuc(a1-3)]Glc", "how_it_was_run": "as §1"}, "[29]": {"biological_target": "Fuc(a1-2)[Gal(a1-3)]Gal(b1-4)[Fuc(a1-3)]GlcNAc", "how_it_was_run": "as §1"}, "[30]": {"biological_target": "Fuc(a1-2)[Gal(a1-3)]Gal(b1-4)[Fuc(a1-3)]GlcNAc(b1-3)GalNAc", "how_it_was_run": "as §1"}, "[31]": {"biological_target": "Fuc(a1-2)[Gal(a1-4)]Gal(b1-4)GlcNAc", "how_it_was_run": "as §1"}, "[32]": {"biological_target": "Fuc(a1-2)[GalNAc(a1-3)]Gal", "how_it_was_run": "as §1"}, "[33]": {"biological_target": "Fuc(a1-2)[GalNAc(a1-3)]Gal(b1-3)GalNAc(a1-3)[Fuc(a1-2)]Gal(b1-4)GlcNAc", "how_it_was_run": "as §1"}, "[34]": {"biological_target": "Fuc(a1-2)[GalNAc(a1-3)]Gal(b1-3)GalNAc(b1-3)Gal(a1-4)Gal(b1-4)Glc", "how_it_was_run": "as §1"}, "[35]": {"biological_target": "Fuc(a1-2)[GalNAc(a1-3)]Gal(b1-3)GlcNAc", "how_it_was_run": "as §1"}, "[36]": {"biological_target": "Fuc(a1-2)[GalNAc(a1-3)]Gal(b1-3)GlcNAc(b1-2)Man(a1-3)[Fuc(a1-2)[GalNAc(a1-3)]Gal(b1-3)GlcNAc(b1-2)Man(a1-6)]Man(b1-4)GlcNAc(b1-4)GlcNAc", "how_it_was_run": "as §1"}, "[37]": {"biological_target": "Fuc(a1-2)[GalNAc(a1-3)]Gal(b1-3)GlcNAc(b1-2)Man(a1-3)[Fuc(a1-2)[GalNAc(a1-3)]Gal(b1-3)GlcNAc(b1-2)Man(a1-6)]Man(b1-4)GlcNAc(b1-4)[Fuc(a1-6)]GlcNAc", "how_it_was_run": "as §1"}, "[38]": {"biological_target": "Fuc(a1-2)[GalNAc(a1-3)]Gal(b1-3)GlcNAc(b1-3)GalNAc", "how_it_was_run": "as §1"}},
  "note": "The other results are listed elsewhere or left out.",
  "data": [
    {"binder": "B1", "values": [
      {"measurement": "glycan array binding signal (z-score)", "setting": "[1]", "result": 0.917},
      {"measurement": "glycan array binding signal (z-score)", "setting": "[2]", "result": -1.23},
      {"measurement": "glycan array binding signal (z-score)", "setting": "[3]", "result": 0.568},
      {"measurement": "glycan array binding signal (z-score)", "setting": "[4]", "result": 0.387},
      {"measurement": "glycan array binding signal (z-score)", "setting": "[5]", "result": 1.6},
      {"measurement": "glycan array binding signal (z-score)", "setting": "[6]", "result": -0.981},
      {"measurement": "glycan array binding signal (z-score)", "setting": "[7]", "result": -0.308},
      {"measurement": "glycan array binding signal (z-score)", "setting": "[8]", "result": -1.16},
      {"measurement": "glycan array binding signal (z-score)", "setting": "[9]", "result": -0.397},
      {"measurement": "glycan array binding signal (z-score)", "setting": "[10]", "result": 0.534},
      {"measurement": "glycan array binding signal (z-score)", "setting": "[11]", "result": -0.26},
      {"measurement": "glycan array binding signal (z-score)", "setting": "[12]", "result": -0.175},
      {"measurement": "glycan array binding signal (z-score)", "setting": "[13]", "result": -0.603},
      {"measurement": "glycan array binding signal (z-score)", "setting": "[14]", "result": -1.32},
      {"measurement": "glycan array binding signal (z-score)", "setting": "[15]", "result": 0.384},
      {"measurement": "glycan array binding signal (z-score)", "setting": "[16]", "result": -0.232},
      {"measurement": "glycan array binding signal (z-score)", "setting": "[17]", "result": 1.05},
      {"measurement": "glycan array binding signal (z-score)", "setting": "[18]", "result": 1.05},
      {"measurement": "glycan array binding signal (z-score)", "setting": "[19]", "result": -0.959},
      {"measurement": "glycan array binding signal (z-score)", "setting": "[20]", "result": -0.696},
      {"measurement": "glycan array binding signal (z-score)", "setting": "[21]", "result": 1.85},
      {"measurement": "glycan array binding signal (z-score)", "setting": "[22]", "result": -0.123},
      {"measurement": "glycan array binding signal (z-score)", "setting": "[23]", "result": 0.344},
      {"measurement": "glycan array binding signal (z-score)", "setting": "[24]", "result": -0.751},
      {"measurement": "glycan array binding signal (z-score)", "setting": "[25]", "result": -2.03},
      {"measurement": "glycan array binding signal (z-score)", "setting": "[26]", "result": 0.747},
      {"measurement": "glycan array binding signal (z-score)", "setting": "[27]", "result": 0.644},
      {"measurement": "glycan array binding signal (z-score)", "setting": "[28]", "result": -0.53},
      {"measurement": "glycan array binding signal (z-score)", "setting": "[29]", "result": 0.177},
      {"measurement": "glycan array binding signal (z-score)", "setting": "[30]", "result": 0.504},
      {"measurement": "glycan array binding signal (z-score)", "setting": "[31]", "result": -0.296},
      {"measurement": "glycan array binding signal (z-score)", "setting": "[32]", "result": -0.119},
      {"measurement": "glycan array binding signal (z-score)", "setting": "[33]", "result": -1.29},
      {"measurement": "glycan array binding signal (z-score)", "setting": "[34]", "result": -0.283},
      {"measurement": "glycan array binding signal (z-score)", "setting": "[35]", "result": 1.84},
      {"measurement": "glycan array binding signal (z-score)", "setting": "[36]", "result": -0.903},
      {"measurement": "glycan array binding signal (z-score)", "setting": "[37]", "result": 0.593},
      {"measurement": "glycan array binding signal (z-score)", "setting": "[38]", "result": -0.961}
    ]}
  ]
}
